Data as given in PubChem BioAssay AID652272 (Drosophila RNAi Screening Center, 2013)
In all, the deposit lists about 21,000 reagents; below is an unselected part of those with a known target gene and a result. Over the whole deposit, 503 (2.4%) are marked active. 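Raw plate light values, not normalised; calls rest on replicate z-scores that were not deposited; hits include reporter decreases as well as increases.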 Unmarked entries are inactive. Not stated in the record: the amount of reagent, the time to read-out.

Purpose: 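Genome-wide knock-down search for components of Hedgehog signalling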 (primary screen)
System: Drosophila clone 8 (Cl8) cells
Knock-down reagent: long dsRNA against Drosophila genes
Measurement: 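Firefly light from a Hedgehog-responsive ptc promoter reporter and Renilla reference light, both read on a plate reader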
Reading the numbers: firefly Hh reporter signal: higher = more ptc reporter light; Renilla reference signal: higher = more Renilla control light
Call rule: 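Hit when the z-score averaged over two replicates is under -2 or over +3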
Calls: active = hit: reporter lowered or raised; inactive = not a hit

| Gene | amplicon | firefly Hh reporter signal, replicate 1 | firefly Hh reporter signal, replicate 2 | firefly Hh reporter signal, replicate 3 | Renilla reference signal, replicate 1 | Renilla reference signal, replicate 2 |
| --- | --- | --- | --- | --- | --- | --- |
| BOD1 | DRSC15824 | 1.15e5 | 94304 | – | 1905 | 2060 |
| pirk | DRSC04269 | 87350 | 64898 | – | 2393 | 5843 |
| ref(2)P | DRSC03601 | 82945 | 47960 | – | 2221 | 3931 |
| lncRNA:CR43491 | DRSC19184 | 5.21e5 | 1.50e5 | – | 31451 | 3040 |
| Mtch | DRSC08679 | 95031 | 68112 | – | 4333 | 2832 |
| CG33299 | DRSC01085 | 5.31e5 | 2.18e5 | – | 27120 | 8994 |
| Lar | DRSC01707 | 1.46e5 | 2.77e5 | – | 4240 | 13207 |
| Lar | DRSC03361 | 87648 | 59097 | – | 3512 | 2928 |
| CG14722 | DRSC14944 | 1.25e5 | 86480 | – | 5472 | 3957 |
| CheA75a | DRSC10807 | 77536 | 39008 | – | 3033 | 1731 |
| Sk2 | DRSC08556 | 84373 | 63195 | – | 3104 | 2508 |
| CG14787 | DRSC18606 | 85092 | 1.97e5 | – | 3795 | 9697 |
| CG5421 | DRSC02858 | 1.16e5 | 63212 | – | 2880 | 5596 |
| pasi1 | DRSC16299 | 7.86e5 | 8.23e5 | 1.76e5 | 42259 | 6225 |
| CG9970 | DRSC08644 | 74487 | 41593 | – | 2674 | 3174 |
| CG15740 | DRSC19706 | 39255 | 32112 | – | 2583 | 716 |
| CG11929 | DRSC00339 | 70120 | 51179 | – | 1957 | 4522 |
| CG17075 | DRSC00483 | 69344 | 54347 | – | 2780 | 2285 |
| Eglp2 | DRSC04294 | 93516 | 54453 | – | 3572 | 2180 |
| CG13059 | DRSC09942 | 1.18e5 | – | – | 7462 | 3857 |
| ND-SGDH | DRSC11102 | 33829 | 48077 | 71579 | 4640 | 4950 |
| CG16953 | DRSC15167 | 1.16e5 | 97485 | – | 4851 | 3195 |
| spri | DRSC17846 | 1.17e5 | 1.94e5 | – | 2176 | 6624 |
| spri | DRSC17984 | 55479 | 2.18e5 | – | 1339 | 7874 |
| spri | DRSC17985 | 1.15e5 | 3.28e5 | – | 4165 | 11536 |
| spri | DRSC17986 | 1.05e5 | 2.43e5 | – | 2153 | 9736 |
| spri | DRSC17988 | 62564 | 1.55e5 | – | 1936 | 8317 |
| spri | DRSC17989 | 67112 | 2.11e5 | – | 2006 | 9139 |
| gcm2 | DRSC03538 | 82326 | 54240 | – | 2682 | 5106 |
| vih | DRSC09778 | 30442 | 43978 | 59589 | 5305 | 3969 |
| Ir75b | DRSC10189 | 98656 | – | – | 4089 | 2848 |
| Nse1 | DRSC02147 | 1.12e5 | 87580 | – | 3979 | 3067 |
| hoka | DRSC08313 | 51748 | 77851 | – | 4076 | 5344 |
| Tsp | DRSC02144 | 97312 | 86327 | – | 3570 | 3272 |
| Tsp | DRSC02145 | 81232 | 86466 | – | 2261 | 7804 |
| hop | DRSC20340 | 88483 | 3.22e5 | – | 3203 | 10445 |
| CG34223 | DRSC05268 | 1.17e5 | 2.11e5 | – | 3306 | 8813 |
| Seipin | DRSC18654 | 50749 | 2.77e5 | – | 1298 | 10187 |
| Strip | DRSC08194 | 57092 | 37785 | – | 3202 | 2026 |
| CG1889 | DRSC18195 | 1.31e5 | 1.15e5 | – | 2992 | 2807 |
| CG32801 | DRSC17964 | 1.07e5 | 2.44e5 | – | 4710 | 8755 |
| Chmp1 | DRSC10401 | 86803 | 51127 | – | 3494 | 1733 |
| Coq5 | DRSC19849 | 1.27e5 | 7.25e5 | 3.48e5 | 2881 | 4668 |
| TpnC73F | DRSC11307 | 1.06e5 | – | – | 2892 | 2580 |
| CG17724 | DRSC06687 | 1.42e5 | 38636 | – | 5154 | 1172 |
| CCDC151 | DRSC10131 | 52220 | 30422 | 37001 | 4144 | 3424 |
| CG2750 | DRSC19867 | 75405 | 4.68e5 | 1.95e5 | 1265 | 3253 |
| Acbp2 | DRSC11141 | 73097 | 68564 | – | 7368 | 5186 |
| Usp47 | DRSC11313 | 91973 | 72323 | – | 3283 | 3059 |
| spg | DRSC14373 | 75456 | 96394 | – | 2912 | 3312 |
| spg | DRSC14881 | 1.06e5 | 1.40e5 | – | 3760 | 4550 |
| CG6959 | DRSC16151 | 74507 | 1.10e5 | – | 2281 | 2992 |
| Aef1 | DRSC11605 | 90688 | 63296 | – | 3232 | 1787 |
| Jhbp7 | DRSC14408 | 5.92e5 | 1.04e5 | – | 30551 | 7845 |
| CG14362 | DRSC14824 | 1.08e5 | 93222 | – | 3955 | 2755 |
| CG4709 | DRSC02772 | 69456 | 54292 | – | 3106 | 2695 |
| Pfrx | DRSC18856 | 1.55e5 | 2.54e5 | – | 6305 | 11779 |
| Pfrx | DRSC19315 | 6.38e5 | 2.08e5 | – | 36711 | 4491 |

Reprinted from the listing (9 entries):
| Gene | amplicon | firefly Hh reporter signal, replicate 1 | firefly Hh reporter signal, replicate 2 | firefly Hh reporter signal, replicate 3 | Renilla reference signal, replicate 1 | Renilla reference signal, replicate 2 |
| --- | --- | --- | --- | --- | --- | --- |
| spri | DRSC17985 | 1.15e5 | 3.28e5 | – | 4165 | 11536 |
| spri | DRSC17986 | 1.05e5 | 2.43e5 | – | 2153 | 9736 |
| spri | DRSC17988 | 62564 | 1.55e5 | – | 1936 | 8317 |
| spri | DRSC17989 | 67112 | 2.11e5 | – | 2006 | 9139 |
| gcm2 | DRSC03538 | 82326 | 54240 | – | 2682 | 5106 |
| vih | DRSC09778 | 30442 | 43978 | 59589 | 5305 | 3969 |
| Ir75b | DRSC10189 | 98656 | – | – | 4089 | 2848 |
| Nse1 | DRSC02147 | 1.12e5 | 87580 | – | 3979 | 3067 |
| hoka | DRSC08313 | 51748 | 77851 | – | 4076 | 5344 |
